Source: the RNAGym collection of RNA variant scans (doi:10.1126/science.aae0568)
Variants at the floor of the assay are shown more often than the library holds them.

B1: tRNA (parent)
chain: GUUCCGUUGGCGUAAUGGUAACGCGUCUCCCUCCUAAGGAGAAGACUGCGGGUUCGAGUCCCGUACGGAACG

Variants of: B1
Assay: yeast fitness relative to wild type (ratio to wild type); higher = fitter; tRNA-Arg(CCU), competitive growth, 37 C, YPD
Outline: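 Amplicons of the tRNA-Arg(CCU) gene were sequenced, 100-nucleotide paired-end, from the start population and from each end population of a pooled yeast competition. The competition, in six parallel replicates, lasted 24 hours in YPD at 37°C. Fitness relative to wild type was calculated from changes in genotype frequencies. Genotypes had to have ≥ 100 starting reads, and estimates < 0.5 were set to 0.5.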
With G25C C29G A43G the yeast fitness was no more than 0.5.
G25C C29G G41A C49U gave a yeast fitness of no more than 0.5.
With G25C C29G U32G G51C the yeast fitness was no more than 0.5.
G25C C31A C46G U64G showed a yeast fitness of no more than 0.5.
Variant G25C C31G C61G C66G has a yeast fitness of 0.674.
Work on G25C C33A G68A yielded a yeast fitness of no more than 0.5.
Work on G25C C46A G56C yielded a yeast fitness of no more than 0.5.
U26A A42C A45G C49U C66U gave a yeast fitness of no more than 0.5.
In the case of U26A C29G U53A, the yeast fitness is reported as no more than 0.5.
In the case of U26A C31A A42G G48A, the yeast fitness is reported as no more than 0.5.
Work on U26A C34A yielded a yeast fitness of 0.592.
Work on U26A C34U A43U C66G yielded a yeast fitness of 0.628.
U26A G56A showed a yeast fitness of 1.02.
Variant U26C A42G U54A U59A has a yeast fitness of no more than 0.5.
U26C A43C G52A U53C G63C showed a yeast fitness of no more than 0.5.
In the case of U26C A45U G68C, the yeast fitness is reported as no more than 0.5.
Work on U26C C29A C66U A69U yielded a yeast fitness of no more than 0.5.
U26C C30U A57G gave a yeast fitness of no more than 0.5.
Work on U26C C33A C62U yielded a yeast fitness of no more than 0.5.
For U26C C33G A45G, the yeast fitness was no more than 0.5.
U26C C49G showed a yeast fitness of 0.842.
U26C C62G G63A gave a yeast fitness of no more than 0.5.
With U26C U28A C29G C33A A42U A70U the yeast fitness was no more than 0.5.
For U26C U54G C66A, the yeast fitness was no more than 0.5.
In the case of U26G A37U A45U G51A A65C, the yeast fitness is reported as no more than 0.5.
U26G C33G U35A C62A gave a yeast fitness of no more than 0.5.
For U26G C49G, the yeast fitness was 0.851.
For U26G G39C A45G C55A A69U, the yeast fitness was no more than 0.5.
With U26G G50C C66U the yeast fitness was no more than 0.5.
Variant C27A A40G C61G C66U has a yeast fitness of no more than 0.5.
Variant C27A A45U C49U C60G A65U has a yeast fitness of no more than 0.5.
In the case of C27A C29G C49G G51C U54C, the yeast fitness is reported as no more than 0.5.
C27A C30G G41C showed a yeast fitness of no more than 0.5.
Variant C27A C31U A43U has a yeast fitness of 0.961.
C27A G39A A42C G48C C60U gave a yeast fitness of no more than 0.5.
For C27A G39A C61G, the yeast fitness was no more than 0.5.
In the case of C27A G39C A57U A70U, the yeast fitness is reported as no more than 0.5.
C27A G44C G50C gave a yeast fitness of 0.639.
C27A U28A G41A G48A A65G showed a yeast fitness of no more than 0.5.
C27G A37U A42G gave a yeast fitness of no more than 0.5.
C27G A40G G48A A57C U64A gave a yeast fitness of no more than 0.5.
For C27G A42G A43U, the yeast fitness was no more than 0.5.
In the case of C27G C29U C49U, the yeast fitness is reported as no more than 0.5.
Work on C27G C29U G68C yielded a yeast fitness of no more than 0.5.
For C27G C30G C66A, the yeast fitness was no more than 0.5.
For C27G C31U C33A A36U C49A C55G, the yeast fitness was no more than 0.5.
C27G C31U C34A gave a yeast fitness of no more than 0.5.
Variant C27G C34U C66U has a yeast fitness of no more than 0.5.
In the case of C27G C46U C61G, the yeast fitness is reported as no more than 0.5.
With C27G G38A C49G the yeast fitness was no more than 0.5.
Variant C27G G63C has a yeast fitness of 0.582.
Variant C27G U28A C30G C31U C62G has a yeast fitness of no more than 0.5.
With C27G U35A G44A the yeast fitness was no more than 0.5.
Variant C27G U54C A65G has a yeast fitness of no more than 0.5.
For C27G U59G G68C, the yeast fitness was 0.582.
In the case of C27U A43C G51C G52A A69C, the yeast fitness is reported as no more than 0.5.
C27U A43C U64C gave a yeast fitness of 0.732.
For C27U A43G G68C, the yeast fitness was no more than 0.5.
With C27U A45C G63A the yeast fitness was 0.68.
C27U A57U C62A showed a yeast fitness of no more than 0.5.
Variant C27U C29A A43G A57U has a yeast fitness of no more than 0.5.
For C27U C29G, the yeast fitness was 0.58.
Work on C27U C29G A42C C55G yielded a yeast fitness of no more than 0.5.
Variant C27U C30G C55U A57C has a yeast fitness of no more than 0.5.
With C27U C30U C34A C62A the yeast fitness was no more than 0.5.
With C27U C33G A43G A45C the yeast fitness was 0.634.
Work on C27U C55A A69U yielded a yeast fitness of 0.549.
For C27U G38C A69U, the yeast fitness was no more than 0.5.
Work on C27U G41C A65C yielded a yeast fitness of 0.588.
Work on C27U U35A A36C C66A yielded a yeast fitness of no more than 0.5.
For U28A A37U C62G G67C, the yeast fitness was no more than 0.5.
Work on U28A A40C C46G yielded a yeast fitness of no more than 0.5.
For U28A A40G A65U, the yeast fitness was no more than 0.5.
U28A C29G C33A A42U showed a yeast fitness of no more than 0.5.
In the case of U28A C29U A37C U64C, the yeast fitness is reported as no more than 0.5.
U28A C31U G41A showed a yeast fitness of no more than 0.5.
U28A C55G A70G showed a yeast fitness of no more than 0.5.
For U28A C62U C66A, the yeast fitness was no more than 0.5.
Variant U28A G38A U59C G67A has a yeast fitness of no more than 0.5.
U28A G63A G68A gave a yeast fitness of no more than 0.5.
Variant U28A U35A has a yeast fitness of 0.584.
With U28A U47G A65C A70U the yeast fitness was no more than 0.5.
With U28C A42G the yeast fitness was 0.913.
Work on U28C A43C G44C G68C yielded a yeast fitness of no more than 0.5.
U28C A43G A57C A65U gave a yeast fitness of no more than 0.5.
Work on U28C C33G G38A C62U C66G A70G yielded a yeast fitness of no more than 0.5.
U28C C34G A42C C46U U54A C55G G58C C66A gave a yeast fitness of no more than 0.5.
Variant U28C G39A G51C C62A A70U has a yeast fitness of no more than 0.5.
For U28C G39C C62G C66A, the yeast fitness was no more than 0.5.
In the case of U28C G39C G51C C55G, the yeast fitness is reported as no more than 0.5.
For U28C U32C C46G, the yeast fitness was 0.722.
With U28G A36G C62G the yeast fitness was no more than 0.5.
U28G A43U G67C gave a yeast fitness of no more than 0.5.
For U28G A45G G51C A70G, the yeast fitness was no more than 0.5.
Variant U28G C30G A42U has a yeast fitness of no more than 0.5.
For U28G C31U G67C, the yeast fitness was no more than 0.5.
In the case of U28G C60G, the yeast fitness is reported as 0.603.
Variant U28G G44C G48C has a yeast fitness of 0.556.
U28G U53A showed a yeast fitness of no more than 0.5.
C29A A37G A42G showed a yeast fitness of no more than 0.5.
In the case of C29A A37G U64A G67A, the yeast fitness is reported as no more than 0.5.
Variant C29A A40C C49U U53G has a yeast fitness of no more than 0.5.
With C29A C49U G63A the yeast fitness was no more than 0.5.
With C29A C49U U64A the yeast fitness was no more than 0.5.
For C29A C61A, the yeast fitness was no more than 0.5.
For C29A G44C, the yeast fitness was 0.778.
C29A G50C U64C showed a yeast fitness of no more than 0.5.
Variant C29A U35A C55A C66U has a yeast fitness of no more than 0.5.
Variant C29A U35G G51A has a yeast fitness of no more than 0.5.
For C29G A36C G41A G50A U53C A65U A70U, the yeast fitness was no more than 0.5.
Variant C29G A37C G67U has a yeast fitness of no more than 0.5.
C29G A42C C55U gave a yeast fitness of no more than 0.5.
For C29G A43G A57G U64C, the yeast fitness was no more than 0.5.
C29G A57C C66G gave a yeast fitness of no more than 0.5.
C29G C30A C49U showed a yeast fitness of no more than 0.5.
For C29G C30U U32A A42G, the yeast fitness was no more than 0.5.
With C29G C33U C66U the yeast fitness was no more than 0.5.
In the case of C29G C46U C61A G63C, the yeast fitness is reported as no more than 0.5.
With C29G C49A C55G A70C the yeast fitness was no more than 0.5.
C29G G50C C66A gave a yeast fitness of 0.518.
For C29G G51A A69U, the yeast fitness was no more than 0.5.
Variant C29G G58A A70C has a yeast fitness of no more than 0.5.
In the case of C29G G67A, the yeast fitness is reported as 0.565.
For C29G U32C A36C G41A G50A U53C, the yeast fitness was no more than 0.5.
In the case of C29G U32G G38A A57G, the yeast fitness is reported as no more than 0.5.
C29U A43G C49A showed a yeast fitness of 0.615.
C29U A57G U59C gave a yeast fitness of no more than 0.5.
Work on C29U C30G C31G A65C yielded a yeast fitness of no more than 0.5.
With C29U C31G C34G A37C C55U the yeast fitness was no more than 0.5.
For C29U C33A C34U G51C U64A C66U A69C, the yeast fitness was no more than 0.5.
Work on C29U C33G C60G yielded a yeast fitness of no more than 0.5.
C29U C33U A43G showed a yeast fitness of no more than 0.5.
Variant C29U C33U U35C U54A has a yeast fitness of no more than 0.5.
In the case of C29U C60A G68U A69C, the yeast fitness is reported as no more than 0.5.
C29U C61U showed a yeast fitness of 0.706.
C29U C66A showed a yeast fitness of 0.591.
With C29U G63C the yeast fitness was 0.728.
Work on C30A C31A G38A C49U G52A yielded a yeast fitness of no more than 0.5.
In the case of C30A C31G U32A C55U G67C, the yeast fitness is reported as no more than 0.5.
For C30A C31U A36G G50A A65G C66U, the yeast fitness was no more than 0.5.
Variant C30A C31U U32C A45C C55G has a yeast fitness of no more than 0.5.
C30A C34A C60U gave a yeast fitness of no more than 0.5.
Work on C30A C34G A40G yielded a yeast fitness of no more than 0.5.
In the case of C30A C62G, the yeast fitness is reported as 0.662.
In the case of C30A G67C, the yeast fitness is reported as 0.841.
For C30G A36U G52A, the yeast fitness was no more than 0.5.
Variant C30G A37C C46G G67C has a yeast fitness of no more than 0.5.
With C30G A42C U59A C60U C66U the yeast fitness was no more than 0.5.
With C30G A45G the yeast fitness was 0.698.
Work on C30G A57C yielded a yeast fitness of no more than 0.5.
C30G C31A U32A gave a yeast fitness of no more than 0.5.
Work on C30G C33G C34U A42U C66U G67C yielded a yeast fitness of no more than 0.5.
Variant C30G C55G has a yeast fitness of no more than 0.5.
Work on C30U A42G G58A A69C yielded a yeast fitness of no more than 0.5.
C30U A42U U64A C66G A69U gave a yeast fitness of no more than 0.5.
With C30U A45U A69G the yeast fitness was 0.566.
Variant C30U C49G A57G G67U has a yeast fitness of no more than 0.5.
In the case of C30U C61G A69C, the yeast fitness is reported as no more than 0.5.
In the case of C30U G39A C60G, the yeast fitness is reported as 0.57.
Variant C30U G50C G52C U54A C60U has a yeast fitness of no more than 0.5.
With C30U U47A A57G the yeast fitness was no more than 0.5.
C30U U47A U54C showed a yeast fitness of no more than 0.5.
In the case of C30U U53G A69U, the yeast fitness is reported as no more than 0.5.
Work on C30U U59A A69C yielded a yeast fitness of no more than 0.5.
C31A A37G A57G gave a yeast fitness of no more than 0.5.
For C31A A40G A43C G44A A70U, the yeast fitness was no more than 0.5.
With C31A C33U G41C the yeast fitness was no more than 0.5.
